PMC7311471, “The iron–sulphur cluster in human DNA2 is required for all biochemical activities of DNA2”
For some assays here: Negatives hold for the conditions tested. Tags and fusion partners may be left off the protein sequences shown.

Assays:
[1] = target: T1, DNA2 C136S-C396S-C402S (human) (UniProt P51530); experiment: EMSA; conditions: 100 nM protein, H2O2; EMSA: 25 mM Tris-HCl pH 8.0, 0.1 mg/ml BSA, 5 mM EDTA, with or without 1 mM DTT, 30 min on ice; 4-5 nM FAM-DNA or 1 nM 32P-DNA; recombinant protein; residues 1-1060; protein details: His6 and FLAG; label: FAM (strand and end not shown); counted as no binding
T1 sequence (looked up): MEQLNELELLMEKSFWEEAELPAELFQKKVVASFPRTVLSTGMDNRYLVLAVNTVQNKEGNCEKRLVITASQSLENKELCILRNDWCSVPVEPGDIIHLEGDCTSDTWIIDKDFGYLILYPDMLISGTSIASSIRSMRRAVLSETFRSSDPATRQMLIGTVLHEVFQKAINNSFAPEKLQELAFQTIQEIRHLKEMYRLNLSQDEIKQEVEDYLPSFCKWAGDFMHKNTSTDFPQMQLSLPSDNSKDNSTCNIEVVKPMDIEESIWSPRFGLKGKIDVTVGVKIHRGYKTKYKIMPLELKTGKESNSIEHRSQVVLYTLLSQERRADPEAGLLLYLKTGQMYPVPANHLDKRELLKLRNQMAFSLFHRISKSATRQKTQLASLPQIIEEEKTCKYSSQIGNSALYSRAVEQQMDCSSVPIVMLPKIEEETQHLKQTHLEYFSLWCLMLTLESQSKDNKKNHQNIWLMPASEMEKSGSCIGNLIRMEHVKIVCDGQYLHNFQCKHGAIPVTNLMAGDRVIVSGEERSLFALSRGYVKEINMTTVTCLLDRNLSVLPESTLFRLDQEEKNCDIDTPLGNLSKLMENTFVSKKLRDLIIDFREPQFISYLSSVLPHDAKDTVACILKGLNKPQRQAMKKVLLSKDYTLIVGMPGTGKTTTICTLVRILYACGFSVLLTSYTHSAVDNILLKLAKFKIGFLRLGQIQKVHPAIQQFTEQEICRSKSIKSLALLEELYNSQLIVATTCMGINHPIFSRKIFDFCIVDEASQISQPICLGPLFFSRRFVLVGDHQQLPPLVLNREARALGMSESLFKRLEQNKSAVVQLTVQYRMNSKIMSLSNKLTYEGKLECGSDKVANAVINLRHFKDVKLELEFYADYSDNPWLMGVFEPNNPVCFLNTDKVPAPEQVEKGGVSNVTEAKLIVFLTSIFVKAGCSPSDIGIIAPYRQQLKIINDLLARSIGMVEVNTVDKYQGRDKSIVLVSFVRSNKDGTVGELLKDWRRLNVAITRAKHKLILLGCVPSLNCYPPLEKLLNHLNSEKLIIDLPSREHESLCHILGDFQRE

mDna2 (mouse) = target: T2, mDna2 (mouse) (UniProt Q6ZQJ5); experiment: EMSA; conditions: 20 h air exposure, loses its ability to bind; EMSA: 25 mM Tris-HCl pH 8.0, 0.1 mg/ml BSA, 5 mM EDTA, with or without 1 mM DTT, 30 min on ice; 4-5 nM FAM-DNA or 1 nM 32P-DNA; recombinant protein; residues 1-1062; protein details: N-terminal His6 (TEV); label: FAM (strand and end not shown)
T2 sequence (looked up): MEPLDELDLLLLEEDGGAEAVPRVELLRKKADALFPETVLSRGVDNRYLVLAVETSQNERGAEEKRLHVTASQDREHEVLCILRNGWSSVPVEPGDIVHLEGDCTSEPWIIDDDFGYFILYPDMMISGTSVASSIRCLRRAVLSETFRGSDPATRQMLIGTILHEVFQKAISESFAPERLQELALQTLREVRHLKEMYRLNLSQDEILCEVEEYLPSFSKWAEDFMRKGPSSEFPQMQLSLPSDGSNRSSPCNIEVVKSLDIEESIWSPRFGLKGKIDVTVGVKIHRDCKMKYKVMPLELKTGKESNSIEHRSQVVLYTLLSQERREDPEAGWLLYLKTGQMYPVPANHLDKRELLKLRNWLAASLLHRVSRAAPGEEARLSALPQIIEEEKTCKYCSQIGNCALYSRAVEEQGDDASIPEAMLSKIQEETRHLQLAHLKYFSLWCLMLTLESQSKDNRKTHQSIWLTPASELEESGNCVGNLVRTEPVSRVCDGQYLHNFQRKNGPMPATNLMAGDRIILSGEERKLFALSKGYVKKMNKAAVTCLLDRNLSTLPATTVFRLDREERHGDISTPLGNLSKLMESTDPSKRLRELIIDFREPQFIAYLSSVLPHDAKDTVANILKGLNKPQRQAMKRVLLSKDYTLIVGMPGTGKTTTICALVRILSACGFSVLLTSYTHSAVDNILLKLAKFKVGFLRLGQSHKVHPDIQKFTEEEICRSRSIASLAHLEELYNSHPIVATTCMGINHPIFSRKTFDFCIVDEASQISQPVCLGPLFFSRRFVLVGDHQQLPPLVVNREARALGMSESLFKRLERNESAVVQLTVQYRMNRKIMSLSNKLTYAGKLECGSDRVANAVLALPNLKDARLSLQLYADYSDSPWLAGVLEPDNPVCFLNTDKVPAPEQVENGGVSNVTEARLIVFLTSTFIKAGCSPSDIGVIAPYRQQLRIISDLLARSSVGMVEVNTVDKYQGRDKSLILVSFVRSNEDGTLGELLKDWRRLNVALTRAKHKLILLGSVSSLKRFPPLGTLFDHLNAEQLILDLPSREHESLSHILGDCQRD

## ATCGATAGTCGGATCCTCTAGACAGCTCCATGTAGCAAGGCACTGGTAGAATTCGGCAGCGT / GACGCTGCCGAATTCTACCAGTGCCTTGCTAGGACATCTTTGCCCACCTGCAGGTTCACCC / TGGGTGAACCTGCAGGTGGGCAAAGATGTCC [5' flap (FAM)]
[1]
  binding signal: 0 % bound
mDna2 (mouse)
  binding result: no binding
